Values quoted from earlier work, collected in patent publication US20240082205A1, “USE OF PHTHALIDE COMPOUNDS IN TREATMENT OF MENINGIOMA” (EVERFRONT BIOTECH INC., priority 2020, published 2024).
At least one compound was matched to its structure with a doubt left.

Test system: meningioma
Conditions: Journal of Neurosurgery 2013; cited from earlier work

Cn1nnc2c(C(N)=O)ncn2c1=O [temozolomide]
outcome of meningioma treatment in phase II clinical trials: failed
